Results are given in words; binding and its absence hold for the method and conditions named. In cells and extracts the contact can be indirect. Some results given as binding are weak or reduced against the parent protein; the word gives no strength.
Assays:
HA-MAML1 = HA-MAML1 (UniProt Q92585); assay: co-IP; exogenous MAML1 and STAT3 in HEK293T cells; immunoprecipitation and western blot
[1] = target: MAML1 (endogenous) (human (endogenous in HepG2)) (UniProt Q92585); assay: co-IP; endogenous proteins; HepG2 lysate in IP lysis buffer, precleared with protein A-agarose, anti-STAT3 or anti-MAML1 antibody or rabbit IgG overnight at 4 °C, protein A-agarose, western blot
[2] = target: STAT3 (endogenous) (human (endogenous in HepG2)) (UniProt P40763); assay: co-IP; immunoprecipitation of the STAT3 complex, blot for p300 and acetyl-lysine; cells with MAML1 overexpression (Fig. 3G) or MAML1 knockdown (Fig. 3H); cell line not named for these panels

Chains of the proteins cited; added tags and fusions are not shown.
UniProt Q92585: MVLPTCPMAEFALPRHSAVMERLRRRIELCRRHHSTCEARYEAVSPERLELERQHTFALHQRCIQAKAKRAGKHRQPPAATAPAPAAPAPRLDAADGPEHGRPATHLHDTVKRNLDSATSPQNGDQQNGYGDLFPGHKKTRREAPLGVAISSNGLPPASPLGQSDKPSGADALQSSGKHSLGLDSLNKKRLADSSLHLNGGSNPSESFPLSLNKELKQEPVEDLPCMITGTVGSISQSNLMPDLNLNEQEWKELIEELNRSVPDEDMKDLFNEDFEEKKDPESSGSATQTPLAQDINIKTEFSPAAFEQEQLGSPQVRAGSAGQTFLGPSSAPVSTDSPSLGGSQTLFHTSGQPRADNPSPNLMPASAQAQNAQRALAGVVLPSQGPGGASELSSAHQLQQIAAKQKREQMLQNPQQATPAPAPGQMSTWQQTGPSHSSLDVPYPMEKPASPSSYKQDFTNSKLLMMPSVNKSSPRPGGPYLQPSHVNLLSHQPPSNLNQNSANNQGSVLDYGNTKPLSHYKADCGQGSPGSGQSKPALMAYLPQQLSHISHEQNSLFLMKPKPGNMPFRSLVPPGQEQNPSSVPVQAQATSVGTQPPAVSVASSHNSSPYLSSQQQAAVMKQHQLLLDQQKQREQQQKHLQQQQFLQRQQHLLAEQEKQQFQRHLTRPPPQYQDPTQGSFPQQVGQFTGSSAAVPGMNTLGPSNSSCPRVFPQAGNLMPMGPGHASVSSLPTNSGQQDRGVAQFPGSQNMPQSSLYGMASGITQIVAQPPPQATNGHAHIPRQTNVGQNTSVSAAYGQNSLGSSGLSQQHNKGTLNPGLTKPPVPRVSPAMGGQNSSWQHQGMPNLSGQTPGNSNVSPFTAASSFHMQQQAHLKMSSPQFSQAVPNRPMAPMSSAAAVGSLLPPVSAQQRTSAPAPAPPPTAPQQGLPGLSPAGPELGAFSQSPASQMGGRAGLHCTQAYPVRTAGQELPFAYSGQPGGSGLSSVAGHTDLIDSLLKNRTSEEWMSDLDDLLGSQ
UniProt P40763: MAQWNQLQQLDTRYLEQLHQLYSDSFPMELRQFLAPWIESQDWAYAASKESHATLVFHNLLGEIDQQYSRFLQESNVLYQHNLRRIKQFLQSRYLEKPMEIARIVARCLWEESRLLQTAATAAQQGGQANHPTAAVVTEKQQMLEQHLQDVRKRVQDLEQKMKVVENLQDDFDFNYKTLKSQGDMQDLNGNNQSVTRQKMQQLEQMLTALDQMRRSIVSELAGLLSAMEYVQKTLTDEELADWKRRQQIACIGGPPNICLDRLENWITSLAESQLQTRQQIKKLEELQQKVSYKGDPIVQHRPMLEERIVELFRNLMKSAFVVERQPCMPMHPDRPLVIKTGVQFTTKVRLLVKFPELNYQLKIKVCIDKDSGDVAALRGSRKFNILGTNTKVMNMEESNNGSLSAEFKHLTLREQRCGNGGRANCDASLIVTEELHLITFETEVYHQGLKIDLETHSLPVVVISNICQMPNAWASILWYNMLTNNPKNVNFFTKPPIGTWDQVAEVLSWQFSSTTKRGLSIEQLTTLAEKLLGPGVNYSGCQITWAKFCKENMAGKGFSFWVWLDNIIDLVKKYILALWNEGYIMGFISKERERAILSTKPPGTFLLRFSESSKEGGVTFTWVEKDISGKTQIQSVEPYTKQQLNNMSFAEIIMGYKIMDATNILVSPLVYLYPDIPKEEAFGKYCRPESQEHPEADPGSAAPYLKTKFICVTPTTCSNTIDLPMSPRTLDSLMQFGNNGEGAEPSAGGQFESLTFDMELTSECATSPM
UniProt Q09472: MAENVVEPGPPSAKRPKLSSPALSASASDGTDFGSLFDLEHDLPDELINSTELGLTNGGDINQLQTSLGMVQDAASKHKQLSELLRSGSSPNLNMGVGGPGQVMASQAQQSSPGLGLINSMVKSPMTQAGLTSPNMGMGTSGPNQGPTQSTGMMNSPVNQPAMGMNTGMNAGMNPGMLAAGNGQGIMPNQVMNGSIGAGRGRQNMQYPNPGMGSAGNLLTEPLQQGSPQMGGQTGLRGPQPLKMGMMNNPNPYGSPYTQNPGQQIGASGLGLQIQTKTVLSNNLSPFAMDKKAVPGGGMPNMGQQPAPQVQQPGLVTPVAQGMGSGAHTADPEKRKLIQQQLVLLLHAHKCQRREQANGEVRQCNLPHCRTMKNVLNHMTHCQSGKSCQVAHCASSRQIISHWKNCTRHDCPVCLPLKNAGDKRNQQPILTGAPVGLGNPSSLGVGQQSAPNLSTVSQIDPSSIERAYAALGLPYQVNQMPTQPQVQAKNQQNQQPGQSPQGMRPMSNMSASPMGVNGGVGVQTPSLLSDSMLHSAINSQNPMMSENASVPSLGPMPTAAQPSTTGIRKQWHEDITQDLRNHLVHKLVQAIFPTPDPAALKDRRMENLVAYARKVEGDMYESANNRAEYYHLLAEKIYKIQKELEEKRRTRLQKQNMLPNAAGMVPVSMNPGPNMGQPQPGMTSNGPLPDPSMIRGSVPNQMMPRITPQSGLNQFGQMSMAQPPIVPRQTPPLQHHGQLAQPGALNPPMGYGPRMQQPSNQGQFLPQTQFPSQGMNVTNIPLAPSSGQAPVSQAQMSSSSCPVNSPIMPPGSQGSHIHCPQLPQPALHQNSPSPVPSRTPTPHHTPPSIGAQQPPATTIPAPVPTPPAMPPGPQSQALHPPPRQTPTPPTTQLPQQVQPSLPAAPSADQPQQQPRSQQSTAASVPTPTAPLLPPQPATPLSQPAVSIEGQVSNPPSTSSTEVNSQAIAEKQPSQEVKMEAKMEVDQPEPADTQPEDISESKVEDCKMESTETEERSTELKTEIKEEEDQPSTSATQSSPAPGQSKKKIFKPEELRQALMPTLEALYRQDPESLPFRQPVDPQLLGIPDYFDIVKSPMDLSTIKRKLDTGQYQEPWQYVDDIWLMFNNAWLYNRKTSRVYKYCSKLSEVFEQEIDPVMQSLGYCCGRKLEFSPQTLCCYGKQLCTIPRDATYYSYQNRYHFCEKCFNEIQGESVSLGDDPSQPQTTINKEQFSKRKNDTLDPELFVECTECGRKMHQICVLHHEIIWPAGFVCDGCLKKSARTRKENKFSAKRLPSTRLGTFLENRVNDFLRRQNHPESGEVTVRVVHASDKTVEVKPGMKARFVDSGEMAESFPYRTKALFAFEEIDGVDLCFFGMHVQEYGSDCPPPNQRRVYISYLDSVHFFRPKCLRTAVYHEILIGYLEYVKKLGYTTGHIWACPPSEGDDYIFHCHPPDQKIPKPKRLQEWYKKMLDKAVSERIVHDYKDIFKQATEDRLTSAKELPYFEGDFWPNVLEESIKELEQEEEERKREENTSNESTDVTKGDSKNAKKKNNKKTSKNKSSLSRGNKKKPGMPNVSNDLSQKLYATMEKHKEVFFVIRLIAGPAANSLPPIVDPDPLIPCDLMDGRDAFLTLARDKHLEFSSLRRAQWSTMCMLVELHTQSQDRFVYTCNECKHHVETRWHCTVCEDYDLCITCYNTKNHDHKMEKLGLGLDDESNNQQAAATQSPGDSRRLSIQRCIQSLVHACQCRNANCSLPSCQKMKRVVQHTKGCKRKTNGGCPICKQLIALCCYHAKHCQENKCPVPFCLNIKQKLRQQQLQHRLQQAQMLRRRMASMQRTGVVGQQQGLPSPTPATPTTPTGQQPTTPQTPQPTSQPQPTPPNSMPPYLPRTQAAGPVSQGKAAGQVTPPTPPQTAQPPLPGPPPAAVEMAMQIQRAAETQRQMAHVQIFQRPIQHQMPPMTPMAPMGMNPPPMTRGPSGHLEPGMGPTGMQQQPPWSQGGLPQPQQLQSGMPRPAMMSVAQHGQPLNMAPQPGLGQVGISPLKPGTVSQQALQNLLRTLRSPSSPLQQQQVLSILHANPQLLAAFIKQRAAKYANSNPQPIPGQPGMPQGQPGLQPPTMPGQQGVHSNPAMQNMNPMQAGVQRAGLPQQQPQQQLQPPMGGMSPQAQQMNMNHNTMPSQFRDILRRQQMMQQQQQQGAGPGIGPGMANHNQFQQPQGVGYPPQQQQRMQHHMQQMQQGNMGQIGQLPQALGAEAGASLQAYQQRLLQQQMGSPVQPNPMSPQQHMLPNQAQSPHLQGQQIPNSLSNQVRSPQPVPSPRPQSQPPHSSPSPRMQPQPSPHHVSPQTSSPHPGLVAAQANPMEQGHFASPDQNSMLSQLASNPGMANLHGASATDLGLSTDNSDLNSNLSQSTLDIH

With Flag-STAT3 (from UniProt P40763 1-770) the binding (HA-MAML1) was “binds”.
In the case of “STAT3 (endogenous) (from UniProt P40763 1-770)”, the binding [1] is reported as “binds”.
For p300 (from UniProt Q09472 1-2414), the binding [2] was “binds”.

Reference: article PMC12696947
